This note sets out measurements from PubChem BioAssay AID2685 (National Center for Advancing Translational Sciences (NCATS), 2010).

The assay is described as follows: qHTS Assay for Lipid Storage Modulators in Drosophila S3 Cells.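 As to cell number change: cells counted by Cell Tracker Red CMTPX staining in the red channel.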 To be noted: BODIPY lipid droplet fluorescence, 18-24 h; for cell number change: measured here: cell count max response, cells fed with added oleic acid. The gist of the method: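 Drosophila S3 cells loaded with oleic acid (400 uM, as added) and compounds at several concentrations; lipid droplets imaged by 488-nm laser-scanning cytometry, 500–530 nm intensity and object ratio to cell channel. Percent activity normalized to 20 uM Triacsin C.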

Setting [1] is: measured here: lipid fluorescence (Fed channel) AC50, cells fed with added oleic acid.
Where [2] appears, read: measured here: cell number channel AC50, cells fed with added oleic acid.

By AC50 is commonly meant the concentration at which the activity in the assay is half-maximal. Low readings indicate greater potency, high ones weaker potency.

The list shows a part of the results. These are further read-outs of the screen, such as a control signal, another cell line or another target. No call is given for them. The list favours compounds with an active or inconclusive main result. Words in brackets tell the shape of the fitted curve; partial curves, single points and poor fits give uncertain potencies.

With `CC1=NN(c2ccc(Cl)cc2)C(=O)/C1=C\c1cccn1-c1ccc(S(N)(=O)=O)cc1`, the cell number change is -11.7%. In addition, the AC50 under setting [1] is 0.651 µM [rising, single point].

For `COC(=O)CSc1ncnc2scc(-c3ccccc3)c12`, the cell number change came out at 39.2%. Moreover, the AC50 under setting [2] was 8.2 µM [rising, partial curve]. For the same compound, the AC50 under setting [1] is 9.2 µM [rising, partial curve].

As for `CC(C)CN1C(=O)c2ccc(C(=O)Nc3nccs3)cc2C1=O`, the cell number change was -17.6%. The AC50 under setting [1] was 1.03 µM [rising, single point].

For the compound `CC(C)S(=O)(=O)C1=NSC2=NC(=O)/C(=C\c3ccc(-c4cccc(C(=O)O)c4)o3)C(=N)N21`, the cell number change was -17.5%.

With `CCOC(=O)Cn1cnc2c(cnn2-c2ccccc2)c1=O`, the cell number change is -5.59%. The AC50 under setting [2] is 6.51 µM [falling, single point].

Turning to `CSc1ccc(/C=C/C(=O)OCC(=O)NC2CC2)cc1`, the cell number change is -12.9%. Under setting [1], the AC50 is 3.26 µM [rising, partial curve, poor fit].

`COc1ccccc1OCCNC(=O)c1cccc(S(=O)(=O)N2CC(C)OC(C)C2)c1` (stereo not drawn): the cell number change is -9.67%.

With `Cc1ccc(S(=O)(=O)N2CCCC2)cc1C(=O)NCC(C)(C)N1CCOCC1`, the cell number change was -17.2%. Further, under setting [1], the AC50 is 23.1 µM [falling, single point].

In the case of `O=C(Nc1cccc(C(F)(F)F)c1)C1=CC=CN2CCS(=O)(=O)N=C12`, the cell number change is -40.3%. For the same compound, the AC50 under setting [2] was 29.1 µM [falling, single point]. For the same compound, the AC50 under setting [1] was 3.66 µM [falling, single point].

In the case of `O=C(O)C1CCCN1S(=O)(=O)c1ccc(Br)s1` (stereo not drawn) (tested in a mixture with another compound), the cell number change is -107%. Moreover, under setting [2], the AC50 was 29.1 µM [falling, partial curve]. In addition, the AC50 under setting [1] was 23.1 µM [falling, partial curve, poor fit].

As to `CC(C)(C)c1ccc(OCCC(=O)Nc2ccc(N3CCOCC3)cc2N2CCOCC2)cc1`, the cell number change worked out at 90%. Moreover, under setting [2], the AC50 was 2.91 µM [rising, full curve].

As for `COc1ccc(O)c(-c2cc(C(F)(F)C(F)F)nc(-c3ccccc3)n2)c1`, the cell number change was found to be 1.23%. Besides, the AC50 under setting [1] was 0.58 µM [falling, full curve].

On to `COc1ccc2nc(Cl)c(C3CC(c4ccco4)=NN3C(=O)CCC(=O)O)cc2c1` (stereo not drawn), for which the cell number change was -3.21%. Further, the concentration at half-maximal activity (AC50) under setting [2] is 7.31 µM [rising, single point]. Besides, the AC50 under setting [1] is 6.51 µM [rising, single point].

Turning to `O=C1CC(SCc2nc3ccccc3[nH]2)C(=O)N1c1cccc(F)c1` (stereo not drawn), the cell number change is -4.88%. Also, the AC50 under setting [1] is 29.1 µM [falling, single point].

Turning to `Cc1ccc(NC(=O)Cc2ccc(Cl)c(Cl)c2)cc1S(=O)(=O)N(C)C`, the cell number change was -16.7%. For the same compound, under setting [2], the AC50 is 0.116 µM [falling, full curve, poor fit]. Besides, under setting [1], the half-maximal activity concentration (AC50) is 1.03 µM [rising, full curve, poor fit].

`COc1ccc2c(C(=O)CN3CCC(C)CC3)c[nH]c2c1`: the cell number change worked out at 46.1%. The AC50 under setting [2] is 16.4 µM [rising, single point]. For the same compound, the AC50 under setting [1] was 0.82 µM [falling, single point].

Regarding `O=C(CCN1CCCCO1)N1CCCC(Nc2cccc(F)c2)C1` (stereo not drawn), the cell number change was -9.19%. Besides, under setting [1], the AC50 was 14.6 µM [falling, partial curve, poor fit].

As to `O=C(CN(c1ccc2c(c1)OCCO2)S(=O)(=O)c1ccccc1)Nc1ccc2c(c1)OCO2`, the cell number change was -24.4%. Moreover, under setting [1], the AC50 was 1.64 µM [rising, partial curve, poor fit].

As for `Cc1ccc(NC(=O)CCC(=O)NCCO)cc1`, the cell number change is -12.3%. Also, the AC50 under setting [2] was 1.64 µM [falling, partial curve]. For the same compound, the half-maximal activity concentration (AC50) under setting [1] was 2.31 µM [falling, partial curve].

Turning to `C=CCn1c(SCC(=O)Nc2ccc3c(c2)CCC3)nnc1-c1cccs1`, the cell number change came to 0.811%.

Turning to `O=C(Cn1c(=O)oc2cc(S(=O)(=O)NCc3ccccc3)ccc21)NCc1ccco1`, the cell number change is 3.03%.

For the compound `O=C(CC1CCCC1)Nc1cccc(Br)c1`, the cell number change was 16.7%. In addition, the AC50 under setting [1] was 6.51 µM [falling, partial curve, poor fit].

Turning to `O=C1CC(c2ccccc2)NN1` (stereo not drawn), the cell number change amounted to 6.88%. Moreover, under setting [2], the AC50 was 0.00461 µM [falling, full curve, poor fit]. Further, the AC50 under setting [1] was 0.58 µM [falling, full curve].

On to `Cc1ccc(C(=O)N2CCC(C(=O)NC3CCCCCC3)CC2)cc1`, for which the cell number change came out at 4.5%.

`O=C(Cc1csc(-c2cccc(Cl)c2)n1)Nc1cccc(S(=O)(=O)NC2=NCCC2)c1`: the cell number change was found to be 32.8%. Moreover, the AC50 under setting [2] was 4.61 µM [rising, full curve, poor fit].

Consider `CCc1nn(C(C)C(=O)NCc2ccc(Cl)cc2)c(=O)c2cc3occc3n12` (stereo not drawn), for which the cell number change is 0.382%. Further, the AC50 under setting [1] was 29.1 µM [rising, single point].

On to `O=C(NCCCN1CCCC1=O)c1ccc(OCc2ccccc2)cc1`, for which the cell number change was -36.6%. Besides, under setting [2], the AC50 is 0.0103 µM [falling, full curve, poor fit].

Take `CCC(CC)C(=O)NCc1ccc(Cl)cc1`: the AC50 was 0.92 µM [falling, full curve] under setting [2] and 1.16 µM [falling, full curve] under setting [1].

Take `Cc1ccc(CNC(=O)CNC(=O)c2c(C)nn(C)c2Cl)cc1`: the AC50 under setting [1] was 0.184 µM [falling, full curve, poor fit].

In the case of `CCOc1ccc(-c2c(C(=O)N/N=C/c3ccc(C)o3)nnn2-c2nonc2N)cc1`, the cell number change turned out to be 16.5%.

As for `COc1ccc(N2CCN(C(=O)c3ccc(CNc4c(N5CCOCC5)c(=O)c4=O)cc3)CC2)cc1`, the cell number change stood at 20.4%. In addition, the AC50 under setting [1] was 29.1 µM [rising, single point].

In the case of `COc1ccc(N(CC(=O)NCc2ccc(F)cc2)C(=O)CCC(=O)Nc2nccs2)cc1`, the cell number change is 13.5%.

In the case of `Cc1ccc2nc(NC3=NCN(CCc4ccccc4)CN3)nc(C)c2c1`, the cell number change turned out to be 1.89%.

With `CC(C)CC1Nc2ncnc(N3CCCCC3)c2N(Cc2ccc(Br)cc2)C1=O` (stereo not drawn), the cell number change is -10.1%. Besides, the AC50 under setting [1] is 6.51 µM [falling, single point].

Turning to `O=C(OCn1nnc2ccccc2c1=O)c1ccc(N2CCOCC2)c([N+](=O)[O-])c1`, the AC50 under setting [1] is 2.91 µM [rising, partial curve].

Take `CCCN1CCN(CCCNC(=S)Nc2ccc(OC)cc2)CC1`: the cell number change was -58.1%. The AC50 under setting [2] was 0.58 µM [falling, full curve]. Further, the AC50 under setting [1] was 0.58 µM [falling, full curve].

Regarding `Cc1ccc(S(=O)(=O)N2CCC(=O)N(C(COCc3ccccc3)C(C)C)CC2)cc1` (stereo not drawn), the cell number change was 5.86%. Also, the AC50 under setting [1] was 0.731 µM [falling, single point].
